In the supplement of paper PMC12873370:
“And” between values parts separate entries of the source, which are not always exact repeats. Equal values may be shown once. The list shows a part of the results. Many values rest on one well or one pass, so single values are uncertain.

Legend:
[1] = tested on: MEPP (mouse ovarian epithelium Trp53/Pten KO); assay: cell viability relative to untreated (fraction); higher = less growth inhibition; settings: 5 µM; 3 days
[2] = tested on: PREPP (mouse prostate epithelium Trp53/Pten KO); assay: as above; settings: 5 µM; 3 days

Row | Compound | cell viability [1] | cell viability [2]
1 | C=C(NC(=O)C(=C)NC(=O)c1csc(C2=N[C@@H]3c4csc(n4)[C@H]4NC(=O)c5csc(n5)[C@H]([C@](C)(O)[C@@H](C)O)NC(=O)[C@H]5CSC(=N5)/C(=C/C)NC(=O)[C@H]([C@@H](C)O)NC(=O)c5csc(n5)[C@]3(CC2)NC(=O)[C@H](C)NC(=O)C(=C)NC(=O)[C@H](C)NC(=O)[C@H]([C@@H](C)CC)N[C@@H]2C=Cc3c([C@H](C)O)cc(nc3[C@H]2O)C(=O)O[C@@H]4C)n1)C(N)=O | 0.575 | 0.619
2 | C=CC1=C(C)/C(=C/c2[nH]c(Cc3[nH]c(/C=C4\NC(=O)C(C)=C4C=C)c(C)c3CCC(=O)O)c(CCC(=O)O)c2C)NC1=O | 1.14 | 1.01
3 | O=C1/C(=C2\Nc3ccccc3C2=O)Nc2ccccc21 | 1.06 | 0.912
4 | O=C1C[C@@H](c2ccc(O)cc2)Oc2cc(O)cc(O)c21 | 1.29 | 0.97
5 | CC(=O)O[C@H]1C(=O)[C@@]2(C)[C@H]([C@H](OC(=O)c3ccccc3)[C@]3(O)C[C@H](OC(=O)[C@H](O)[C@@H](NC(=O)c4ccccc4)c4ccccc4)C(C)=C1C3(C)C)[C@]1(OC(C)=O)CO[C@@H]1C[C@@H]2O | 0.64 and 0.734 | 0.697 and 0.797
6 | NCCCC(=O)O | 1.01 | 1.22
7 | O=C(C=Cc1ccc(O)c(O)c1)O[C@H]1[C@H](O)C[C@](O)(C(=O)O)C[C@H]1OC(=O)C=Cc1ccc(O)c(O)c1 | 1 | 0.871
8 | CCC1=C[C@@H]2CN(C1)Cc1c([nH]c3ccccc13)[C@@](C(=O)OC)(c1cc3c(cc1OC)N(C)[C@H]1[C@@](O)(C(=O)OC)[C@H](OC(C)=O)[C@]4(CC)C=CCN5CC[C@]31[C@@H]54)C2 | 0.449 and 0.602 | 0.756 and 0.589
